Test results as given in the supplement of paper PMC6289059.
The list shows a part of the results. Many values rest on one well or one pass, so single values are uncertain.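 The cells are hepatocyte-like cells grown from human stem cells in which the DGUOK gene was disrupted by CRISPR, a model of liver mtDNA depletion syndrome. Each well's ATP signal was scored against the other wells on its plate, and a drug counted as a primary hit when its score was 3 or higher.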

test system: DGUOK Δ14/Δ5 iPSC-derived hepatocyte-like cells (SV20); test: ATP level (CellTiter-Glo luminescence) Z score relative to plate distribution, under 2-DG glycolysis block; higher = more cellular ATP (rescue of mitochondrial ATP production); conditions: 5 µM; treatment time: day 15 to day 20 of differentiation (5 days); 2-deoxy-D-glucose: 20 mM for 24 h before assay

Row | SMILES | ATP level
1 | CS(=O)(=O)OCCCCOS(C)(=O)=O | inactive: 0.525
2 | OCc1c[nH]c2ccccc12 | inactive: -1.35
3 | COc1ccc(-c2coc3c(O)c(O)c(OC)cc3c2=O)cc1 | active: 3.09
4 | CC(O)Cn1cnc2c1c(=O)n(C)c(=O)n2C (stereo not drawn) | inactive: 0.7
5 | N[C@@H](Cc1c[nH]c2ccccc12)C(=O)O | inactive: -9.06
6 | O=C(OOC(=O)c1ccccc1)c1ccccc1 | inactive: 0.935
7 | CCC1(C)OC(=O)N(C)C1=O (stereo not drawn) | inactive: 1.74
8 | C=C(C)[C@H]1CC=C(C)CC1 | inactive: -0.195
9 | NC(=O)CCCCC1CCSS1 (stereo not drawn) | inactive: -0.974
10 | NS(=O)(=O)c1cc2c(cc1C(F)(F)F)NCNS2(=O)=O | inactive: 1.01
11 | CC(C)CCC[C@@H](C)[C@H]1CC[C@H]2[C@@H]3CC=C4C[C@@H](OC(=O)c5ccccc5)CC[C@]4(C)[C@H]3CC[C@]12C | inactive: -1.94
12 | COc1cc(OC)c2c(c1Cl)O[C@@]1(C(=O)CC(=O)C[C@H]1C)C2=O | inactive: 0.973
13 | CN1C(=O)CC[C@H]1c1cccnc1 | inactive: 0.173
14 | CC(=O)N[C@H]1[C@H]([C@@H](O)[C@@H](O)CO)O[C@@](O)(C(=O)O)C[C@@H]1O | inactive: 0.921
15 | CC[C@@H]1C(=O)OC[C@@H]1Cc1cncn1C | inactive: -1.82
16 | NC(=O)NCCC[C@H](N)C(=O)O | inactive: 1.51
17 | O=c1oc2c(O)c(O)cc3c(=O)oc4c(O)c(O)cc1c4c23 | inactive: -0.405
18 | O=C1NS(=O)(=O)c2ccccc21 | inactive: 1.41
19 | NS(=O)(=O)c1cc2c(cc1Cl)NC(C1CC3C=CC1C3)NS2(=O)=O (stereo not drawn) | inactive: -36.8
20 | CC(=O)CC(c1ccccc1)c1c(O)c2ccccc2oc1=O (stereo not drawn) | inactive: -4.66
21 | CCN(CC)CC(=O)Nc1c(C)cccc1C | inactive: 1.35
22 | c1ccc2c(CC3=NCCN3)cccc2c1 | inactive: 1.07

Row | SMILES | ATP level
23 | CC(=O)OCC(=O)[C@@]12OC(C)(C)O[C@@H]1C[C@H]1[C@@H]3C[C@H](F)C4=CC(=O)C=C[C@]4(C)[C@@]3(F)[C@@H](O)C[C@@]12C | inactive: 2.34
24 | OCc1ccccc1O[C@@H]1O[C@H](CO)[C@@H](O)[C@H](O)[C@H]1O | inactive: 0.451
25 | C=CC1=C(C(=O)O)N2C(=O)[C@@H](NC(=O)/C(=N\O)c3csc(N)n3)[C@H]2SC1 | inactive: 0.809
26 | Cc1cn([C@H]2C=C[C@@H](CO)O2)c(=O)[nH]c1=O | inactive: 0.683
27 | CC(=O)NS(=O)(=O)c1ccc(N)cc1 | inactive: -9.97
28 | C=C1CC[C@@H]2[C@](C)(CO)[C@H](O)CC[C@@]2(C)[C@@H]1C/C=C1/C(=O)OC[C@H]1O | inactive: -4.04
29 | Oc1ccc([C@H]2Oc3cc(O)cc(O)c3C[C@H]2O)cc1 | inactive: -0.886
30 | COc1cccc2c1C(=O)c1c(O)c3c(c(O)c1C2=O)C[C@@](O)(C(C)=O)C[C@@H]3O[C@H]1C[C@H](N)[C@H](O)[C@H](C)O1 | inactive: -20.5
31 | Cc1c(-c2cnccn2)ssc1=S | inactive: -3.91
32 | C[C@@H]1C[C@H]2[C@@H]3CCC4=CC(=O)C=C[C@]4(C)[C@@]3(F)[C@@H](O)C[C@]2(C)[C@@]1(O)C(=O)COP(=O)(O)O | inactive: 0.685
33 | CCN(CC)CCNC(C(=O)OCCC(C)C)c1ccccc1 (stereo not drawn) | inactive: -0.343
34 | C[C@]12CC[C@@H]3c4ccc(OC(=O)c5ccccc5)cc4CC[C@H]3[C@@H]1CC[C@@H]2O | inactive: 2.03
35 | CN1CCN(C(c2ccccc2)c2ccccc2)CC1 | inactive: -3.44
36 | C[N+](C)(C)CC(=O)O | inactive: -24.3
37 | O=C(O)c1ccccc1C(=O)Nc1ccc(S(=O)(=O)Nc2nccs2)cc1 | inactive: 0.487
38 | NC[C@@H]1O[C@@H](O[C@H]2[C@H](O)[C@@H](O[C@H]3O[C@H](CO)[C@@H](O)[C@H](N)[C@H]3O)[C@H](N)C[C@@H]2N)[C@@H](O)[C@H](O)[C@H]1O | inactive: 1.17
39 | CC1CC(OC(=O)c2ccccc2O)CC(C)(C)C1 (stereo not drawn) | inactive: 0.474
40 | COC(=O)c1cc(OC)c(=O)c2c(OC)c(OC)ccc2c1 | inactive: 0.995
41 | C[C@H](CCC(=O)O)[C@H]1CC[C@H]2[C@@H]3[C@@H](O)C[C@@H]4C[C@H](O)CC[C@]4(C)[C@H]3CC[C@]12C | inactive: 0.761
42 | CN1CCC(=C2c3ccccc3Sc3ccccc32)CC1 | inactive: -0.817
43 | Nc1c2ccccc2nc2ccccc12 | active: 4
44 | COC1=CC(=O)C(C(=O)c2ccccc2)=CC1=O | inactive: 0.737

Row | SMILES | ATP level
45 | N[C@@H](Cc1cc(I)c(Oc2ccc(O)c(I)c2)c(I)c1)C(=O)O | inactive: 0.845
46 | CC[C@H]1OC(=O)C[C@@H](O)[C@H](C)[C@@H](O[C@@H]2O[C@H](C)[C@@H](O[C@H]3C[C@@](C)(O)[C@@H](O)[C@H](C)O3)[C@H](N(C)C)[C@H]2O)[C@@H](CC=O)C[C@@H](C)C(=O)/C=C/C(C)=C/[C@@H]1CO[C@@H]1O[C@H](C)[C@@H](O)[C@@H](OC)[C@H]1OC | inactive: 0.602
47 | COc1ccc2c(=O)c(-c3ccc(O)cc3)coc2c1 | inactive: -1.04
48 | COC(=O)CC1C(C)(C)C(OC(C)=O)[C@@H]2[C@@H](OC(C)=O)[C@]34O[C@@]2(O)[C@]1(C)C3CC[C@]1(C)C4=CC(=O)O[C@H]1c1ccoc1 (stereo partly drawn) | inactive: -1.34
49 | O=C(O)Cc1cc(I)c(Oc2cc(I)c(O)c(I)c2)c(I)c1 | active: 3.1
50 | CC1(C)O[C@@H]2C[C@H]3[C@@H]4CCC5=CC(=O)C=C[C@]5(C)[C@H]4[C@@H](O)C[C@]3(C)[C@]2(C(=O)CO)O1 | inactive: 2.14
51 | CCN(CC)CCOc1ccc2c(c1)C(=O)c1cc(OCCN(CC)CC)ccc1-2 | inactive: -4.15
52 | CN(Cc1cnc2nc(N)nc(N)c2n1)c1ccc(C(=O)NC(CCC(=O)O)C(=O)O)cc1 (racemic) | inactive: -4.29
53 | Cc1cc2nc3ccc(=[N+](C)C)cc-3sc2cc1N | inactive: -8.64
54 | C=C[C@@]1(C)CC(=O)[C@]2(O)[C@@]3(C)[C@@H](O)CCC(C)(C)[C@@H]3[C@H](O)[C@H](OC(C)=O)[C@@]2(C)O1 | inactive: 2.05
55 | C/C(=C(\CCOP(=O)(O)O)SC(=O)c1ccccc1)N(C=O)Cc1cnc(C)nc1N | inactive: 1.03
56 | CCCCC(CC)COC(=O)C(C#N)=C(c1ccccc1)c1ccccc1 (stereo not drawn) | inactive: 1.23
57 | Nc1c2c(nc3ccccc13)CCCC2 | inactive: -4.34
58 | COc1ccc(-c2coc3cc(O)ccc3c2=O)c(OC)c1OC | inactive: -0.391
59 | O=c1cc(-c2ccccc2)oc2cc(O)cc(O)c12 | inactive: -0.477
60 | CC(C)=CCC/C(C)=C/CC/C(C)=C/CO | inactive: -1.11
61 | Cc1c(C(=O)O)c(O)cc2c1C(=O)c1c(O)c([C@@H]3O[C@H](CO)[C@@H](O)[C@H](O)[C@H]3O)c(O)c(O)c1C2=O | inactive: -0.351
62 | CC(C)(C)C(=O)C(Oc1ccc(Cl)cc1)n1ccnc1 (stereo not drawn) | inactive: -0.167
63 | Cc1ccccc1OCC(O)CO (stereo not drawn) | inactive: -10.9
64 | S=c1ccss1 | inactive: -0.999
65 | c1ccc2c(c1)CN1CCCC1=N2 | inactive: -0.218
66 | C[C@H](N)[C@H](O)c1cccc(O)c1 | active: 3.37

A few values from the list:
For ATP level, N[C@@H](Cc1cc(I)c(Oc2ccc(O)c(I)c2)c(I)c1)C(=O)O has inactive: 0.845
For ATP level, CC[C@H]1OC(=O)C[C@@H](O)[C@H](C)[C@@H](O[C@@H]2O[C@H](C)[C@@H](O[C@H]3C[C@@](C)(O)[C@@H](O)[C@H](C)O3)[C@H](N(C)C)[C@H]2O)[C@@H](CC=O)C[C@@H](C)C(=O)/C=C/C(C)=C/[C@@H]1CO[C@@H]1O[C@H](C)[C@@H](O)[C@@H](OC)[C@H]1OC has inactive: 0.602
For ATP level, CC(C)(C)C(=O)C(Oc1ccc(Cl)cc1)n1ccnc1 (stereo not drawn) has inactive: -0.167

Three structures out of the list, ordered by length of the SMILES, rising.
Row | SMILES | ATP level
53 | Cc1cc2nc3ccc(=[N+](C)C)cc-3sc2cc1N | inactive: -8.64
49 | O=C(O)Cc1cc(I)c(Oc2cc(I)c(O)c(I)c2)c(I)c1 | active: 3.1
51 | CCN(CC)CCOc1ccc2c(c1)C(=O)c1cc(OCCN(CC)CC)ccc1-2 | inactive: -4.15

(listing goes on)

Row | SMILES | ATP level
67 | CCN(CC)CCOC(=O)C(Cc1cccc2ccccc12)CC1CCCO1 (stereo not drawn) | inactive: -6.95
68 | CC1(C)S[C@@H]2[C@H](NC(=O)C(C(=O)O)c3ccccc3)C(=O)N2[C@H]1C(=O)O (stereo partly drawn) | inactive: -11.2
69 | C=C[C@@H](C1=CC(=O)C(OC)=C(OC)C1=O)c1ccccc1 | active: 4.44
70 | O=C1CN(/N=C/c2ccc(-c3ccc([N+](=O)[O-])cc3)o2)C(=O)N1 | inactive: 0.204
71 | COc1cc(O)c2c(c1)C(=O)c1cc(C)cc(O)c1C2=O | inactive: 1.88
72 | CCOC(=O)n1ccn(C)c1=S | inactive: 0.294
73 | CC1(O)CCC(C(C)(C)O)CC1 (stereo not drawn) | inactive: 1.78
74 | CC1(C)S[C@@H]2[C@H](NC(=O)[C@H](C(=O)O)c3ccsc3)C(=O)N2[C@H]1C(=O)O | inactive: 1.24
75 | CN[C@@H]1[C@@H](O)[C@@H](O[C@@H]2[C@@H](O)[C@H](O[C@H]3OC(CN)=CC[C@H]3N)[C@@H](N)C[C@H]2N)OC[C@]1(C)O | inactive: -1.01
76 | C=C[C@](C)(O)CCC=C(C)C | inactive: 0.294
77 | CCCCC(CC)COC(=O)C=Cc1ccc(OC)cc1 (stereo not drawn) | inactive: 0.146
78 | CC(C)c1c(O)ccc2c1CC[C@H]1C(C)(C)CCC[C@]21C | inactive: 0.0749
79 | CCCC1O[C@@H]2C[C@H]3[C@@H]4CCC5=CC(=O)C=C[C@]5(C)[C@H]4[C@@H](O)C[C@]3(C)[C@]2(C(=O)CO)O1 (stereo partly drawn) | inactive: -5.35
80 | COc1cc(/C=C/c2ccc(O)cc2)cc(OC)c1 | inactive: -4.02
81 | CCOC(=O)c1ncn2c1CN(C)C(=O)c1cc(F)ccc1-2 | inactive: 1.3
82 | O=NN(CCCl)C(=O)NCCCl | active: 3.4
83 | CC1=C(/C=C/C(C)=C/C=C/C(C)=C/C=C/C=C(C)/C=C/C=C(C)/C=C/C2=C(C)C(=O)CCC2(C)C)C(C)(C)CCC1=O [CANTHAXANTHIN (euglenanone)] | inactive: 0.816
84 | Cl.NCCCC[C@H](N)C(=O)O | inactive: 1.53
85 | Nc1nc(N)c2nc(CNc3ccc(C(=O)N[C@@H](CCC(=O)O)C(=O)O)cc3)cnc2n1 | inactive: -2.94
86 | C#C[C@]1(O)CC[C@H]2[C@@H]3CCc4cc(O)ccc4[C@H]3CC[C@@]21C | inactive: -2.63
87 | CC(C)=CC1C(CO)C1(C)C (stereo not drawn) | inactive: 0.382
88 | Cc1occc(=O)c1O | inactive: -1.44
